Test results from publication PMC12313066.

Sequences of proteins named here, by UniProt entry; tags and fusion partners are left off.
UniProt P16220: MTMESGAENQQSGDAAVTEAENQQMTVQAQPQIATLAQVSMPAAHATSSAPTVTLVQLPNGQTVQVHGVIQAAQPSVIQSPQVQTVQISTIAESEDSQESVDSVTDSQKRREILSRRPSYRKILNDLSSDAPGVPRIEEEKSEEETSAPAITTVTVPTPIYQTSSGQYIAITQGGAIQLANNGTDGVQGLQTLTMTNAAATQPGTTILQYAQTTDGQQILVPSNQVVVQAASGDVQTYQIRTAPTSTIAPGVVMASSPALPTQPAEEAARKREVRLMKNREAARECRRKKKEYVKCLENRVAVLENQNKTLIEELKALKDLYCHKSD
UniProt Q04206: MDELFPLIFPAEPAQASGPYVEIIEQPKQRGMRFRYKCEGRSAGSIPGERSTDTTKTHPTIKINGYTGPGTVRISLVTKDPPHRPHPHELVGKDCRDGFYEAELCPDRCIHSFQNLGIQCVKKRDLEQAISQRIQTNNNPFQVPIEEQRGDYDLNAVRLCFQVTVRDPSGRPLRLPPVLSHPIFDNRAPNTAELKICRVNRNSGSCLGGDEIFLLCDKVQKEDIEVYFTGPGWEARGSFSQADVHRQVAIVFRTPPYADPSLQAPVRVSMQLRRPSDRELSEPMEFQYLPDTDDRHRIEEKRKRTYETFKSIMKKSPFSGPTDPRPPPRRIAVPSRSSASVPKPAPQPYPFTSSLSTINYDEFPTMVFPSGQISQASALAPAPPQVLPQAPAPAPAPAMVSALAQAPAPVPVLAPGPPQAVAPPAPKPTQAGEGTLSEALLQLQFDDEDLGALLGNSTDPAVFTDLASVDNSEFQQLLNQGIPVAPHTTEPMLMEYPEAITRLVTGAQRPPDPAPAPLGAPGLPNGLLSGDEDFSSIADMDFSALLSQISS

Assays:
[1] = target: Tax-miniTurboID fusion protein (HTLV-1 transactivator Tax) (HTLV-1) (UniProt P03409); test: proximity labelling; miniTurboID: HeLa S3 transfected with Tax-miniTurboID or empty control, 500 uM biotin for 6 hours, RIPA lysis, streptavidin agarose beads, DIA-LC/MS; fold change > 1.2 over control considered positive
[2] = target: Tax-miniTurboID fusion protein (HTLV-1 transactivator Tax) (HTLV-1) (UniProt P03409); test: as above; remark: listed apart in the source

Row | Molecule | binding [1] | binding [2]
1 | CREB1 (from UniProt P16220 1-327) | binds | 
2 | EP300 (from UniProt Q09472 1-2414) | binds | 
3 | RELA (from UniProt Q04206 1-551) | binds | 
4 | WD repeat domain 83 (WDR83), endogenous (protein, UniProt Q9BRX9 1-315) MAFPEPKPRPPELPQKRLKTLDCGQGAVRAVRFNVDGNYCLTCGSDKTLKLWNPLRGTLLRTYSGHGYEVLDAAGSFDNSSLCSGGGDKAVVLWDVASGQVVRKFRGHAGKVNTVQFNEEATVILSGSIDSSIRCWDCRSRRPEPVQTLDEARDGVSSVKVSDHEILAGSVDGRVRRYDLRMGQLFSDYVGSPITCTCFSRDGQCTLVSSLDSTLRLLDKDTGELLGEYKGHKNQEYKLDCCLSERDTHVVSCSEDGKVFFWDLVEGALALALPVGSGVVQSLAYHPTEPCLLTAMGGSVQCWREEAYEAEDGAG |  | binds
5 | G-patch domain containing 1 (GPATCH1), endogenous (protein, UniProt Q9BRR8 1-931) MAARDSDSEEDLVSYGTGLEPLEEGERPKKPIPLQDQTVRDEKGRYKRFHGAFSGGFSAGYFNTVGSKEGWTPSTFVSSRQNRADKSVLGPEDFMDEEDLSEFGIAPKAIVTTDDFASKTKDRIREKARQLAAATAPIPGATLLDDLITPAKLSVGFELLRKMGWKEGQGVGPRVKRRPRRQKPDPGVKIYGCALPPGSSEGSEGEDDDYLPDNVTFAPKDVTPVDFTPKDNVHGLAYKGLDPHQALFGTSGEHFNLFSGGSERAGDLGEIGLNKGRKLGISGQAFGVGALEEEDDDIYATETLSKYDTVLKDEEPGDGLYGWTAPRQYKNQKESEKDLRYVGKILDGFSLASKPLSSKKIYPPPELPRDYRPVHYFRPMVAATSENSHLLQVLSESAGKATPDPGTHSKHQLNASKRAELLGETPIQGSATSVLEFLSQKDKERIKEMKQATDLKAAQLKARSLAQNAQSSRAQLSPAAAAGHCSWNMALGGGTATLKASNFKPFAKDPEKQKRYDEFLVHMKQGQKDALERCLDPSMTEWERGRERDEFARAALLYASSHSTLSSRFTHAKEEDDSDQVEVPRDQENDVGDKQSAVKMKMFGKLTRDTFEWHPDKLLCKRFNVPDPYPDSTLVGLPRVKRDKYSVFNFLTLPETASLPTTQASSEKVSQHRGPDKSRKPSRWDTSKHEKKEDSISEFLSLARSKAEPPKQQSSPLVNKEEEHAPELSANQTVNKDVDAQAEGEGSRPSMDLFRAIFASSSDEKSSSSEDEQGDSEDDQAGSGEANFQSSQDTDLGETSSVAHALVPAPQEPPPSFPIQKMQIDEREEFGPRLPPVFCPNARQTLEVPQKEKHKKNKDKHKAKKEHRRKKEKKKKHRKHKHKGKQKNKKPEKSSSSESSDSSDSQSDEETADVSPQELLRRLKSLPLRRQ |  | binds

Read-outs that look alike come from different tables or passages of the source. These are yes or no findings as the source states them, for the method shown. Binding seen in cells or lysates may run through a third protein. A yes stands for co-enrichment or nearness to the bait. Other partners may have been found.
